# Results as given in PubChem BioAssay (NCATS).
# This list was built around the results that the source calls inconclusive (neither active nor inactive); the mix of calls is not that of the screen. Potencies beside an inconclusive call are fits to weak or partial responses and may not hold up. Active and inactive are the calls of the source. The call rests on the fitted dose curve; in most records, active means well fitted cell-killing curve with a large enough effect; inconclusive means small, poorly fitted or top-dose-only effect, or effect the other way; inactive means no such curve, though single readings can be large or run the other way.
# Experiment: Quantitative highthroughput screen to assess conditional lethalithy of SEM cells grown in RPMI1640 with unreated serum (RPMI+s) (AID 1963883); further: nearly all actives have a fitted effect of over 35% in size
# Details: SEM B-ALL cells, CellTiter-Glo viability, 48 h; series mostly up to 45.8 µM; viability: at the top concentration
# Excerpt: Assay Provider: Jason Cantor Ph.D.
# Department of Biochemistry
# University of Wisconsin-Madison, Madison, WI, USA
# Chemical screening studies have identified drug sensitivities across hundreds of cancer cell lines but most putative therapeutics fail to translate. Discovery and development of drug candidates in models that more accurately reflect nutrient levels in human blood is a major challenge. Here we performed high-throughput screens in conventional versus Human Plasma-Like Medium (HPLM) to identify compounds that were "missed" when screening using the artificial culture condition. Sets of conditional anticancer compounds spanned phases of clinical development and included non-oncology drugs were assessed. […] We also traced conditional phenotypes for several chemotherapeutics to availability of HPLM-specific metabolites and confirmed others for compounds whose reported targets are encoded by nonessential genes. Our findings establish generalizable strategies for exploiting conditional lethality in HPLM to reveal therapeutic candidates and mechanisms of action in cancer cells.
# Described herein are the results of each viability screens against three cell lines: NOMO1 (an acute myeloid leukemia cell line); P12-Ichikawa (a T-cell acute lymphoblastic leukemia); and SEM (a B-cell ALL). Each assay was screened using 3 different cell culture media: homemade human plasma-Like medium with 10% dialyzed fetal bovine serum (HPLM+ds); RPMI1640 with 10% untreated FBS and 5mM glucose (RPMI+s); and RPMI1640 with 10% dialyzed fetal bovine serum and 5 mM glucose (RPMI+ds).
# PROTOCOL TABLE (as described by Inglese J, Shamu CE and Guy RK. 2007)
# SEQUENCE No. (e.g., 1, 2, 3, etc.); […] (e.g., Cells, Incubation, Reagent, etc.); VALUE and DESCRIPTION.
# 1; Cells; 5 uL; white, solid bottom 1536-well Greiner assay plate.
# 2; Compounds; 23 nL; Kalypsis pin tool (Wako USA) equipped with a 1536-well pin head to transfer to the assay plates.
# 3; Incubation; 48 hours; 37C incubation.
# 4; Reagent; 3 uL; CellTiter Glo (Promega).
# 5; Incubation; 5 min, room temperature
# 6; Detection; Luminescence, Viewlux PerkinElmer.
# NOTES (numbers refer to Sequence numbers above)
# 1. Briefly, 5 ul of cell reagent was dispensed using a Multidrop Combi Dispenser. The NOMO1 and SEM cells were plated at 500 cells/well and the P12-Ichikawa line at 1000 cells/well.
# 2. After seeding the cells, 23 nL of MIPE 4.1 library compounds (in DMSO) were added to each plate using a Kalypsys 1536 Pintool dispenser. Bortezomib at final concentration of […] and DMSO were added to each plate as positive and negative controls respectively. For each screen, MIPE 4.1 compounds were added over an eleven-point concentration range […] in 3-fold dilutions.
# 3. Each plate was covered with a stainless steel gasketed lid to prevent evaporation and incubated for 48 hour at 37C, 95% relative humidity, and 5% CO2.
# 4-5. Three microliter CellTilter-GloTM luminescent substrate mix (Promega) reagent was added to the assay plate and incubated at room temperature for 5 min.
# 6. The luminescence signal was measured using a ViewLux (PerkinElmer) multiplate reader with a 2 second exposure time per plate. Data for each compound were normalized as percent viability such that measurements for DMSO and the empty well controls in each plate were defined as 100% and 0%, respectively.
# Potency means the concentration at half of the fitted maximal effect.
SMILES,Potency,viability
CC(C)C[C@H](CN)CC(=O)O,"inconclusive: 11.8 µM [cytotoxic, single point]",–
CC(O)=C(C#N)C(=O)Nc1cc(Br)ccc1Br,"inconclusive: 11.8 µM [cytotoxic, single point]",–
COc1ccc(C(=O)c2c(C)n(CCN3CCOCC3)c3cc(I)ccc23)cc1,"inconclusive: 23.5 µM [cytotoxic, single point]",–
CC1=NN=C(c2ccc(N)cc2)c2cc3c(cc2C1)OCO3,"inconclusive: 20.9 µM [cytotoxic, single point]",–
COC[C@H]1OC(=O)c2coc3c2[C@@]1(C)C1=C(C3=O)C2CCC(=O)[C@@]2(C)C[C@H]1OC(C)=O (stereo not given in full),–,inactive: 76.1%
COC[C@H]1OC(=O)c2coc3c2[C@@]1(C)C1=C(C3=O)[C@@H]2CC[C@H](O)[C@@]2(C)C[C@@H]1OC(C)=O,"inconclusive: 18.7 µM [cytotoxic, partial curve, poor fit]",–
COc1ccc2c(c1)[C@]13CCCCC1C(C2)N(C)CC3 (stereo not given in full),–,inactive: 103%
O=C1C=CC[C@@H]2[C@H]3CCCN4CCC[C@@H](CN12)[C@@H]34,–,inactive: 106%
NC1CC1c1ccccc1 (stereo not given),–,inactive: 94.1%
CC(=O)O[C@@]12CO[C@H]1C[C@H](O)[C@@]1(C)C(=O)[C@H](O)C3=C(C)[C@@H](O)C[C@@](O)([C@@H](OC(=O)c4ccccc4)[C@@H]21)C3(C)C,"inconclusive: 8.33 µM [cytotoxic, full curve, poor fit]",–
Oc1ccc2c3c1O[C@H]1c4[nH]c5c(c4C[C@@]4(O)[C@@H](C2)N(CC2CC2)CC[C@]314)C[C@@]1(O)[C@H]2Cc3ccc(O)c4c3[C@@]1(CCN2CC1CC1)[C@H]5O4,"inconclusive: 0.0372 µM [rising, full curve, poor fit]",–
CCOC(=O)Nc1ccc(NCc2ccc(F)cc2)cc1N,–,inactive: 91.9%
CN(C)[C@@H]1C(=O)C(C(N)=O)=C(O)[C@@]2(O)C(=O)C3=C(O)c4c(O)cccc4[C@@](C)(O)[C@H]3[C@H](O)[C@@H]12,–,inactive: 106%
COC1=C[C@@H]2[C@@H]3Cc4ccc(OC)c(O)c4[C@]2(CCN3C)CC1=O,–,inactive: 96%
C[C@]12Cc3cn[nH]c3C[C@@H]1CC[C@@H]1[C@H]2CC[C@@]2(C)[C@H]1CC[C@]2(C)O,–,inactive: 102%
O=C(NCC1CCOCC1)c1cnc(Nc2ccc(Cl)cc2Cl)nc1C(F)(F)F,–,inactive: 88%
COC(=O)[C@@H](N)CCCN=C(N)N[N+](=O)[O-],–,inactive: 102%
C=C[C@@H]1CN2CCC1C[C@@H]2[C@@H](O)c1ccnc2ccccc12 (stereo not given in full),active: 16.6 µM,–
CNC(=O)N1N=C(c2ccc(N)cc2)c2cc3c(cc2CC1C)OCO3 (stereo not given),active: 8.33 µM,–

# A run of entries taken from the entries so far, for reference:
SMILES,Potency,viability
COC(=O)[C@@H](N)CCCN=C(N)N[N+](=O)[O-],–,inactive: 102%
C=C[C@@H]1CN2CCC1C[C@@H]2[C@@H](O)c1ccnc2ccccc12 (stereo not given in full),active: 16.6 µM,–

# Remaining list, next part:

SMILES,Potency,viability
c1ccc(CCCN2CCN(CCOC(c3ccccc3)c3ccccc3)CC2)cc1,"inconclusive: 10.5 µM [cytotoxic, single point]",–
O=c1cccc2n1CC1CNC[C@H]2C1,"inconclusive: 37.2 µM [cytotoxic, single point]",–
COc1cc2cc(c1Cl)N(C)C(=O)C[C@H](OC(=O)C(C)C)[C@]1(C)O[C@H]1[C@H](C)[C@@H]1C[C@@](O)(NC(=O)O1)[C@H](OC)C=CC=C(C)C2,–,inactive: 1.57%
C=C1C[C@H]2[C@H]3CCC(=O)[C@@]3(C)CC[C@@H]2[C@@]2(C)C=CC(=O)C=C12,"inconclusive: 9.35 µM [cytotoxic, full curve]",–
CN1CCN(c2ccc([N+](=O)[O-])c3no[n+]([O-])c23)CC1,"inconclusive: 20.9 µM [cytotoxic, single point]",–
O=C(Oc1ccc([N+](=O)[O-])cc1)N1CCN(Cc2cccc(Oc3ccccc3)c2)CC1,–,inactive: 95.4%
CC[C@@H](C(N)=O)N1CCCC1=O,"inconclusive: 8.33 µM [cytotoxic, full curve]",–
CCOC(=O)c1cncn1[C@H](C)c1ccccc1,–,inactive: 99.8%
Cn1cc(C2=C(c3cn(C4CCN(Cc5ccccn5)CC4)c4ccccc34)C(=O)NC2=O)c2ccccc21,"inconclusive: 8.33 µM [cytotoxic, single point]",–
COc1ccc2c(c1)CN(C)CC2c1ccc(Cl)c(Cl)c1 (stereo not given),"inconclusive: 33.2 µM [cytotoxic, single point]",–
CC=C(C)C(=O)N[C@@H](c1ccccc1)[C@@H](O)C(=O)O[C@H]1C[C@@]2(O)[C@@H](OC(=O)c3ccccc3)[C@@H]3[C@]4(OC(C)=O)CO[C@@H]4C[C@H](O)[C@@]3(C)C(=O)[C@H](OC(C)=O)C(=C1C)C2(C)C,"inconclusive: 0.0017 µM [cytotoxic, full curve]",–
CCNC(=O)C[C@@H]1N=C(c2ccc(Cl)cc2)c2cc(OC)ccc2-n2c(C)nnc21,active: 1.05 µM,–
COc1ccc2c(c1OC)CN1CCc3cc4c(cc3C1C2)OCO4 (stereo not given),active: 0.372 µM,–
Cn1c(CCCC(=O)O)nc2cc(N(CCCl)CCCl)ccc21,"inconclusive: 23.5 µM [cytotoxic, single point]",–
Fc1ccc(C(OCCN2CCN(CCCc3ccccc3)CC2)c2ccc(F)cc2)cc1,"inconclusive: 37.2 µM [cytotoxic, single point]",–
C[C@]12COC(=O)C[C@@H]1CC[C@@H]1[C@H]2CC[C@@]2(C)[C@H]1CC[C@]2(C)O,"inconclusive: 20.9 µM [cytotoxic, partial curve, poor fit]",–
Cc1cc(SCc2sc(-c3ccc(C(F)(F)F)c(F)c3)nc2C)ccc1OCC(=O)O,–,inactive: 105%
CN1C(=O)CCS(=O)(=O)C1c1ccc(Cl)cc1 (stereo not given),–,inactive: 97.5%
COC1=CC(C)=C[C@@H](C)[C@@H](O)[C@@H](C)CC(C)=CC=C[C@H](OC)[C@H]([C@@H](C)[C@@H](O)[C@H](C)[C@@]2(O)C[C@@H](O)[C@H](C)[C@@H](C(C)C)O2)OC1=O,"inconclusive: 0.0187 µM [cytotoxic, full curve]",–
Cc1nc(-c2ccc(-c3ccc(C(=O)N4CCc5cc6c(cc54)C4(CCN(C)CC4)CO6)cc3)c(C)c2)no1,–,inactive: 101%
